# Results published in PubChem BioAssay AID1347131 (National Center for Advancing Translational Sciences (NCATS), 2019).
# In all, about 410,000 compounds went through this assay and about 2,000 (0.49%) were called active. The inconclusive results got no clear call from the source; some entries with a clear call stand among them for comparison. Calls come from the whole dose curve; tested in HEK293 reporter line. Potencies of inconclusive entries are doubtful fits and often do not repeat.
# Experiment: qHTS Assay for Foot and Mouth Disease Virus Antivirals: Primary Screen against the MLPCN compound library; note: nearly all actives have a fitted effect of over 55% in size
# Conditions: FMDV antiviral cell-based qHTS; activity, negative = inhibition: at 57.9 µM (top of the series)
# Potency is the fitted concentration of half-maximal effect.
SMILES,Potency,"activity, negative = inhibition"
Cc1ccc(C(=O)Nc2ccc3ncccc3c2)cc1,"inconclusive: 14.1 µM [inhibitor, partial curve, poor fit]",–
CCC(Sc1n[nH]c(=O)[nH]c1=O)C(=O)OCc1ccccc1 (stereo not drawn),"inconclusive: 1.78 µM [inhibitor, partial curve, poor fit]",–
COc1ccc(CN2CCC(N(CCc3ccccc3)Cc3ccccc3)CC2)c(OC)c1,"inconclusive: 17.8 µM [inhibitor, partial curve, poor fit]",–
CC1(C)C[C@H]2C=C(C=O)[C@]3(C=O)C[C@]3(C)[C@H]2C1,"inconclusive: 25.1 µM [inhibitor, partial curve, poor fit]",–
Cc1ccc(-n2ncc3c(NC4CCCC4)ncnc32)cc1,active: 12.6 µM,–
CCCCN(C)C(=O)c1oc2ccc(S(=O)(=O)N3CCCCCC3)cc2c1C,"inconclusive: 35.5 µM [inhibitor, partial curve, poor fit]",–
NC1=NN=C(c2ccc3c(c2)OCCO3)CS1,"inconclusive: 11.2 µM [inhibitor, partial curve, poor fit]",–
CCOc1ccc(C(=O)Nc2nc(-c3ccc(Br)cc3)ns2)cc1,"inconclusive: 22.4 µM [inhibitor, single point]",–
c1ccc(Sc2cccc3ccccc23)c(CNC2=NCCN2)c1,–,inactive: -36.1%
O=C(Nc1cccc(O)c1)C(=O)Nc1ccccn1,"inconclusive: 12.6 µM [inhibitor, partial curve, poor fit]",–
Fc1ccccc1-c1csc(=Nc2cccnc2)n1CCCn1ccnc1,–,inactive: -40%
Cc1nn(C(C)C)c(C)c1CN1CCCC(C(=O)c2cccc(OC(C)C)c2)C1 (stereo not drawn),–,inactive: -35.4%
O=c1cc(N2CCCCC2)c(-c2ccccc2)nn1Cc1ccccc1Cl,"inconclusive: 39.8 µM [inhibitor, partial curve, poor fit]",–
Clc1ccc(-n2ncc3c(NCC4CCCO4)ncnc32)cc1 (stereo not drawn),"inconclusive: 39.8 µM [inhibitor, single point]",–
Cc1csc(NC(=O)c2ccc(Cn3nc(C)c(Br)c3C)o2)n1,"inconclusive: 22.4 µM [inhibitor, partial curve, poor fit]",–
COc1cc(-c2noc(C)c2C#CC2(O)CCCCC2)cc(OC)c1OC,"inconclusive: 10 µM [inhibitor, partial curve]",–
COc1ccc(C=NNc2nc3ccccc3s2)cc1,active: 15.8 µM,–
COc1ccc(-c2nc3ccc(C)cn3c2NCc2ccccc2)cc1SC1CCCCC1,"inconclusive: 20 µM [inhibitor, partial curve, poor fit]",–

# Complete entries, looked up by structure. Values in the order: Potency	activity, negative = inhibition
# Cc1ccc(C(=O)Nc2ccc3ncccc3c2)cc1 is listed as inconclusive: 14.1 µM [inhibitor, partial curve, poor fit]	–
# O=C(Nc1cccc(O)c1)C(=O)Nc1ccccn1 is listed as inconclusive: 12.6 µM [inhibitor, partial curve, poor fit]	–
